The full ranking holds about 33,000 sequences; the median of “E-score (-0.5 to 0.5)” is about -0.0034, and the highest 2% start at about 0.25. The list shows a part of the results.
biological target: T1, Yap3 (UniProt P38749); assay: PBM E-score (8-mer binding enrichment) (E-score (-0.5 to 0.5)); higher = stronger / more preferred TF binding; conditions: protein concentration: 100 nM; construct: GST-full length
T1 sequence: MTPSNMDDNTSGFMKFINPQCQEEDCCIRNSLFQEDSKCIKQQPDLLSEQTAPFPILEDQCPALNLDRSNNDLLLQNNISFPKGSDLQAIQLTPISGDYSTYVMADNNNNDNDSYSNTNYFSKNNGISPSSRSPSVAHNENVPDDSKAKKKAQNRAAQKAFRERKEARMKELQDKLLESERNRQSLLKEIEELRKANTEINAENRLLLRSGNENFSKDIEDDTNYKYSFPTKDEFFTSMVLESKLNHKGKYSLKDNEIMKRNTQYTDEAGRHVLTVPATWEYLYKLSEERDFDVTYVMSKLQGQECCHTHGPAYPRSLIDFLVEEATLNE
Method: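 Universal 'all 10-mer' protein binding microarrays (Agilent AMADID 015681) probed with GST-tagged S. cerevisiae TFs (full-length or DBD) made by in vitro transcription/translation (PURExpress), about 100-200 nM. Bound TF was detected with fluorescent anti-GST. Each ungapped 8-mer (which stands for itself and its reverse complement) is scored by the PBM enrichment score (E-score), a modified Wilcoxon-Mann-Whitney statistic from -0.5 to +0.5, computed with the Universal PBM Analysis Suite. Scale: above 0.35 generally sequence-specific binding.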

| Sequence | PBM E-score |
| --- | --- |
| CGGTACCC | -0.229 |
| AACAATGG | 0.186 |
| GCGAATAC | 0.0476 |
| AACTCAAT | 0.101 |
| AAACCCGG | -0.0294 |
| GTGCCCCA | -0.252 |
| AATTTCTA | 0.0932 |
| CAGATAAA | 0.15 |
| GGGCGATA | -0.261 |
| TCAGACAA | 0.0634 |
| ACCTAGCT | -0.156 |
| AATGGAGT | 0.0202 |
| AAAATCAT | 0.099 |
| ATGTCCTG | 0.0306 |
| GACCACCA | -0.126 |
| ATTGGATG | 0.0479 |
| GATCTTTA | 0.0282 |
| AGGTCTTC | -0.194 |
| CAGTTGGC | -0.151 |
| ACGCGATA | 0.134 |
| GGCCATTA | 0.0393 |
| CGTGTACC | -0.0435 |
| CACATACG | 0.00477 |
| AATCGCAG | 0.0612 |
| GTTGCCAA | -0.0155 |

| Sequence | PBM E-score |
| --- | --- |
| AATATCGG | 0.215 |
| CGGTCTGA | -0.0519 |
| AAGCAGCA | -0.17 |
| ATTAGTCA | 0.42 |
| CGAGGAAC | 0.0228 |
| ATTCTGGA | 0.132 |
| AGAAATGC | 0.16 |
| ACTATTAA | 0.123 |
| CAAAACAA | 0.075 |
| CCGCCCAC | -0.0479 |
| CACTCATG | 0.0014 |
| ACGCACAG | 0.0281 |
| CTTGCACC | 0.0735 |
| AGGCGCTA | 0.0291 |
| GACATTCC | -0.186 |
| AAATATTG | 0.269 |
| GTCTATGA | 0.181 |
| CCGGCAAG | 0.00534 |
| GGCGACAC | -0.162 |
| CGTCTCGA | 0.0721 |
| AAGGATCC | -0.16 |
| AATGATTA | 0.325 |
| CACCGTTA | 0.116 |
| AGGCTAAA | -0.0161 |
| AAGGATGT | -0.0734 |

| Sequence | PBM E-score |
| --- | --- |
| GGCGGGTA | -0.221 |
| AGTTCATC | -0.0605 |
| GCGATGCA | -0.188 |
| GAAGATCA | 0.0115 |
| AACGTTAC | 0.128 |
| AACTATAC | 0.0711 |
| TATCCGAA | 0.0804 |
| GAGAGCCA | -0.119 |
| CCGGGTTC | -0.34 |
| GCCAGGTA | -0.0301 |
| CCAGGCTC | -0.213 |
| AAGATCAC | 0.108 |
| CGAACAGA | 0.0315 |
| ACCAAACC | 0.115 |
| ACCGACAT | 0.00535 |
| GTCGCGAA | -0.0136 |
| AAGGGCTA | -0.0582 |
| CGAGGATC | 0.00139 |
| CCTGGGAG | -0.171 |
| GGGTGACC | -0.247 |
| GCTTTCCA | 0.0839 |
| GGTTTTCA | 0.0332 |
| GATACATC | 0.224 |
| ATGTCTAC | -0.185 |
| AAAAAACT | 0.0242 |

| Sequence | PBM E-score |
| --- | --- |
| ATGTTGGA | 0.247 |
| CCTACTCG | -0.0477 |
| CATAAACC | 0.134 |
| AGGTATGG | -0.0324 |
| CTCCAAAG | -0.112 |
| AAGATGCC | -0.0913 |
| ACTTTAGC | -0.0127 |
| AGGGGAAC | -0.188 |
| CATAACGG | 0.021 |
| CGCGTTAC | 0.212 |
| GACCTAGA | -0.156 |
| GTTAAAAC | 0.0245 |
| TTCTAAAA | 0.0712 |
| GCGTGCAC | -0.0932 |
| CATTTCCC | 0.293 |
| ATAATGCC | 0.0178 |
| TACTCTGA | 0.0683 |
| CGTCCTAA | -0.0115 |
| AATCACGT | 0.242 |
| CGCTAGCA | -0.121 |
| AACACTAA | 0.117 |
| GGAAATGA | 0.253 |
| GATAAGGA | 0.0659 |
| AACAACTG | 0.0942 |
| CCATCTAA | -0.0259 |

| Sequence | PBM E-score |
| --- | --- |
| GGAATCAC | 0.112 |
| AGAGCACG | -0.187 |
| GCACGAAC | 0.224 |
| TGGCTGAA | 0.0481 |
| AGGCCGAG | -0.0483 |
| CAGATCGA | 0.0118 |
| ATGTCGGG | 0.00306 |
| ACATCGGA | 0.0174 |
| GTCATGCA | -0.0295 |
| CCCCCACG | -0.267 |
| ATCTCTAC | 0.179 |
| CACTGCCG | -0.087 |
| GACTTTAA | -0.0279 |
| AGCCTGTG | -0.177 |
| CCATGCGG | -0.161 |
| CTATAACC | -0.0722 |
| AGTTATTA | 0.184 |
| AAATTAAG | 0.135 |
| CAGTGCTA | 0.0429 |
| CTTCCTGC | -0.182 |
| ACGGGTCT | -0.283 |
| AGGATTTC | 0.0473 |
| ATGGAACC | 0.0312 |
| ACTGCGCC | -0.253 |
| AAGTAGCA | 0.135 |

| Sequence | PBM E-score |
| --- | --- |
| CCTGTCAG | -0.104 |
| GTCCGTTA | 0.107 |
| ACCTTGTG | -0.129 |
| ATAACAAA | 0.209 |
| AGACAGGG | -0.198 |
| ACAACTTA | 0.0982 |
| CAGTCACC | -0.166 |
| GAAGGGCA | -0.108 |
| AAAATACA | 0.197 |
| CGAATAGC | 0.0595 |
| CTAGGTCA | -0.136 |
| ATCGCTGG | -0.223 |
| ACGGCCCA | -0.194 |
| ATTGGGCA | -0.0331 |
| AGTTTCCG | 0.0445 |
| CAGTCTAG | -0.222 |
| GTTCAACA | 0.027 |
| AAACACCA | 0.0628 |
| TGAATCAA | 0.0222 |
| ATCATCTC | 0.0253 |
| ACGTAGAA | 0.095 |
| CACTGCAA | 0.0163 |
| ACGTCGCT | -0.104 |
| CCATAAGG | -0.0652 |
| AATCGGCG | -0.043 |

| Sequence | PBM E-score |
| --- | --- |
| TAAGGTCA | 0.00376 |
| CGCCCGGA | -0.108 |
| GGTTCCAC | -0.18 |
| GCCCCAGC | -0.148 |
| AAGTTCCC | -0.0616 |
| GTATAGGA | 0.0758 |
| GCGAAGGA | -0.201 |
| AGGACTTG | -0.316 |
| ACTGACGC | -0.0683 |
| GAGAACAA | 0.311 |
| AAAGTCTA | -0.107 |
| ATTCCACA | 0.148 |
| CCCATCAA | 0.132 |
| TGCTGCCA | -0.181 |
| CACCTTCC | 0.0339 |
| AGCTTTAT | -0.00438 |
| ATTTCCAA | -0.154 |
| AAATAGCA | 0.0385 |
| GACATTGA | 0.145 |
| CCATCCAG | -0.0947 |
| CTCGCGGA | -0.0195 |
| GGATCCTA | -0.11 |

In a second layout: results already given
CCCATCAA
  PBM E-score: 0.132
TGCTGCCA
  PBM E-score: -0.181
CACCTTCC
  PBM E-score: 0.0339
AGCTTTAT
  PBM E-score: -0.00438

Shown with bars between the fields: entries from further up.
Sequence | PBM E-score
GCCCCAGC | -0.148
AAGTTCCC | -0.0616

Laid out differently: results already given.
Sequence | PBM E-score
AGGACTTG | -0.316
ACTGACGC | -0.0683

From the supplement of paper PMC3334620
